Measurements: patent US20120135880A1
No constants are given. Whether binding was seen depends on the method and setting. Some results given as binding are weak or reduced against the parent protein; the word gives no strength.

Amino acid sequences for entries named in this document (tags omitted). A change or cut given only in a name is not applied to a line headed by its entry.
UniProt Q9HCN6: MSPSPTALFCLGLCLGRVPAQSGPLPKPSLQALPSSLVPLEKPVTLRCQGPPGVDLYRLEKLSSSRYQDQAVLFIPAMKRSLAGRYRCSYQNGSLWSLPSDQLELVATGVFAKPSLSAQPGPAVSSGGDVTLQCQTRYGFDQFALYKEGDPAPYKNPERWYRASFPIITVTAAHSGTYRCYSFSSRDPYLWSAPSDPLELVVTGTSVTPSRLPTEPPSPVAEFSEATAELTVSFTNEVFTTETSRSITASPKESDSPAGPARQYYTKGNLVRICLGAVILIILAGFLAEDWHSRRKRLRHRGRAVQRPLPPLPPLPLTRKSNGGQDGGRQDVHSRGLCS

Target: collagen-binding domain (CBD) of human glycoprotein VI (GPVI), residues Q1-T183, recombinant, refolded from E. coli inclusion bodies (human) (UniProt Q9HCN6)
Experiment: sedimentation velocity analytical ultracentrifugation; 6.7 µM GPVI CBD titrated with CRP (0, 1.7, 10, 20, 26, 80, 240 µM); inset: s* against [CRP] with fitted single-site isotherm

## POGPOGPOGPOGPOGPOGPOGPOGPOGPOG (O is hydroxyproline (second residue of every POG triplet)) [collagen-related peptide (CRP), non-crosslinked (POG)10 triple helix]
  binding: binds
